The target of this experiment is mineralocorticoid receptors (Homo sapiens, UniProt P08235). The experiment can be described thus: In-vitro antagonistic activity against mineralocorticoid receptors (luciferase reporter, transfected HEK293T cells, 1 nM aldosterone). The conditions noted are these: luciferase readout. On the technique in general: In a reporter assay the amount or activity of a reporter protein is the signal.

By UniProt entry, the sequences of proteins in these tests, tags left out.
UniProt P08235, whole entry: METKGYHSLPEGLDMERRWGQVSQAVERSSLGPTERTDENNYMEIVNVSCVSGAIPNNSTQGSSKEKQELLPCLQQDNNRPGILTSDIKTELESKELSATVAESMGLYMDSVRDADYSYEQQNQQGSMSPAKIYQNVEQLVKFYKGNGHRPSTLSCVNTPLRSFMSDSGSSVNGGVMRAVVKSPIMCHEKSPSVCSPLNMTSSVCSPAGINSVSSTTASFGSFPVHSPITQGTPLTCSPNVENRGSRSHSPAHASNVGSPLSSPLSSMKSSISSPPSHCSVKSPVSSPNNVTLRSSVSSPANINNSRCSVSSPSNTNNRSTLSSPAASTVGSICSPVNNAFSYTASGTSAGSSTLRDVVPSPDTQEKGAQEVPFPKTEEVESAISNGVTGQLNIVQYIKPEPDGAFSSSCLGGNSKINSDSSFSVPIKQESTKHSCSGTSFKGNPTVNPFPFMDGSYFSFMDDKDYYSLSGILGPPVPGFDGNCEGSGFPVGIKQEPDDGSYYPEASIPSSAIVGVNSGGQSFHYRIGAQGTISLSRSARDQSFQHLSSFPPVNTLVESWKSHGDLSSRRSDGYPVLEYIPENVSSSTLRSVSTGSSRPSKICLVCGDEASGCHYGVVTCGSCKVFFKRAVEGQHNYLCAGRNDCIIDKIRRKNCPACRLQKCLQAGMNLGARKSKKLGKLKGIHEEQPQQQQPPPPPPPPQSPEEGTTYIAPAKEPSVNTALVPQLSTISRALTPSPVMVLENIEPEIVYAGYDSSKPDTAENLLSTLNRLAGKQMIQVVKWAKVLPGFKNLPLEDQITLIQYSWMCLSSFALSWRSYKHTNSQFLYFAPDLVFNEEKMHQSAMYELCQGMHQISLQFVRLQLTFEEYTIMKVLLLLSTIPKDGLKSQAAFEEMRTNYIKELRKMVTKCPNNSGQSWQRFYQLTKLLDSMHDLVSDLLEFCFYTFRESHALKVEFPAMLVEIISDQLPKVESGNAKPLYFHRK

As a reminder, the IC50 is the point on the concentration scale where inhibition reaches its midpoint. A lower IC50 goes with inhibition by little substance.

The structures given here were assigned with low confidence; some may be wrong.

In turn, `[2H]C([2H])([2H])Oc1cc(C#N)ccc1[C@@H]1C(C(N)=O)=C(C)Nc2c(C)cnc(OCC)c21` displayed an IC50 of 7 nM.

The record behind these values is patent publication US20260265249A1, “PHARMACEUTICALLY ACCEPTABLE SALT AND CRYSTAL FORM OF 1,4-DIHYDRO-1,6-NAPHTHYRIDINE AMIDE COMPOUND AND PREPARATION METHOD THEREFOR” (JIANGSU HENGRUI PHARMACEUTICALS CO., LTD., priority 2023, published 2026).
